System: 60 cancer cell line panel profile
Assay: COMPARE algorithm correlation with the NCI database
Conditions: COMPARE at the GI50 level

SMILES: CC1(C=CCCCc2ccc3ccc4cccc5ccc2c3c45)C=C2C(=O)C3(O)OC(=O)C4(CCCC(C)(C)C34)C2(O)CC1 (stereo not shown) [Compound 13]
- highest correlation coefficient with any database compound: 0.39

Source: publication PMC11199504, “New hemisynthetic derivatives of sphaeropsidin phytotoxins triggering severe endoplasmic reticulum swelling in cancer cells” (Scientific Reports, 2024)
